Test results reported in paper PMC10074116.
Results are given in words; binding and its absence hold for the method and conditions named. Binding seen in cells or lysates may run through a third protein. Some binding calls cover weakened binding; strength is not graded here.

Protein sequences, listed by entry. Tags and fused reporters are not part of them.
UniProt P35637: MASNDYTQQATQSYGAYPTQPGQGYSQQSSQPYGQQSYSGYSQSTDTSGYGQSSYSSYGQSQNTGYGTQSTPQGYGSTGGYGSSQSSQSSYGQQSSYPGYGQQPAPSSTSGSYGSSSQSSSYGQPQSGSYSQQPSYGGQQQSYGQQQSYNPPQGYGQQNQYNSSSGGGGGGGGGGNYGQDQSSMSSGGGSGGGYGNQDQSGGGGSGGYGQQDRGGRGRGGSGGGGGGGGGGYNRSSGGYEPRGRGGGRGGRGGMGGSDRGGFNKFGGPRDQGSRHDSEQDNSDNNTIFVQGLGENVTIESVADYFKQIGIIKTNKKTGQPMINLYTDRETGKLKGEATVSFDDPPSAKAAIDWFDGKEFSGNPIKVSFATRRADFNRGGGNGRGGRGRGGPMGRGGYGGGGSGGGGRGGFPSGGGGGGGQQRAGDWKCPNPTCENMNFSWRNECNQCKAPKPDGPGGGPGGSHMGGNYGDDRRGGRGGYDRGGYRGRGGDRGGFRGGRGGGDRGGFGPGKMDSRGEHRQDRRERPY

Target: fused in sarcoma (FUS) (human (endogenous in MDA-MB-231 and MDA-MB-468)) (UniProt P35637)
Assay: co-IP; lysates (20 mM Tris pH 7.5, 150 mM NaCl, 1% Triton X-100, 1 mM PMSF) of MDA231 and MDA468 cells in hypoxic conditions; primary antibody 2 h, protein A/G beads overnight at 4 °C, Western blot; for FUS and LAMP1: MDA468 cells with circTBC1D14 overexpression or knockdown, pretreated with …

binding: binds
Substance: P62 (from UniProt Q13501 1-440)
